Screen size: about 330,000 compounds; about 7,700 (2.3%) were called active. Inconclusive results, whose numbers are uncertain, are shown with a selection of clear calls. Calls follow the shape of the dose curve; as a rule, active = well fitted inhibition curve with a large enough effect; inconclusive = small, poorly fitted or top-dose-only effect, or effect the other way; inactive = flat fitted curve, though single readings scatter. Potencies of inconclusive entries are doubtful fits and often do not repeat.
Experiment: qHTS screen for small molecules that inhibit ELG1-dependent DNA repair in human embryonic kidney (HEK293T) cells expressing luciferase-tagged ELG1; also: nearly all actives have a fitted effect of over 55% in size
Details: HEK293T ELG1-luciferase reporter, luminescence, 16 h, DNA damage induced by 5-fluorouridine; activity change, negative = inhibition: at 46.1 µM (top of the series)
Outline: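 Luminescence from the luciferase reporter, measured 30 min after ONE-Glo reagent at room temperature, was the read-out. Beforehand, 2,000 cells per well were exposed for 16 hr at 37 °C to 5-fluorouridine together with compound or vehicle.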
For CN(c1ccccc1)S(=O)(=O)c1ccc(NC(=O)c2ccco2)cc1, the “activity change, negative = inhibition” value was inactive: -0.412%.
In the case of Cc1cccc(NS(=O)(=O)c2ccc(C(=O)N3CCCC3)cc2)c1C, the Potency is reported as inconclusive: 10.3 µM [inhibitor, single point].
With CCN1C(=O)[C@H]2[C@@H](c3ccc(-c4ccc(OC)cc4)c(OC)c3)N[C@@](CC(C)C)(C(=O)OC)[C@H]2C1=O the “activity change, negative = inhibition” value was inactive: 12.6%.
With COc1ccccc1OCCNC(=O)c1cccc(S(=O)(=O)NCc2ccccc2)c1 the Potency was inconclusive: 12.6 µM [inhibitor, partial curve].
For CC(C)C(=O)N1CCN(c2ccc(NC(=O)c3ccc4c(c3)OCCO4)cc2Cl)CC1, the Potency was active: 5.8 µM.
In the case of Cn1c(=O)c2c(nc(N3CCc4ccccc4C3)n2C)n(C)c1=O, the Potency is reported as inconclusive: 29.1 µM [inhibitor, single point].
For Cc1ccccc1-n1c(=O)n(CCc2ccccc2)c(=O)c2[nH]cnc21, the Potency was inconclusive: 25.9 µM [activator, single point].
With CC(C)Oc1ccc(C(CCN)C2CCCCC2)cc1 (stereo not given) the Potency was inconclusive: 16.4 µM [inhibitor, partial curve, poor fit].
For CNS(=O)(=O)c1ccc2c3c(cccc13)C(=O)N2C, the Potency was inconclusive: 29.1 µM [activator, single point].
With COc1ccc(C)cc1-n1c(SCC(=O)NCC2CCCO2)nc2c([nH]c3ccccc32)c1=O (stereo not given) the Potency was inconclusive: 25.9 µM [inhibitor, single point].
With COC(=O)/C=C/C1=CN(Cc2ccccc2)CCC1=O the Potency was inconclusive: 20.6 µM [activator, partial curve, poor fit].
In the case of Oc1c(N=Nc2ccccn2)ccc2ccccc12, the Potency is reported as inconclusive: 3.26 µM [activator, full curve].
For CCOC(=O)c1cc(-c2cccc([N+](=O)[O-])c2)nc2[nH]c(=O)[nH]c(=O)c12, the Potency was inconclusive: 20.6 µM [inhibitor, single point].
In the case of CCC(=O)Nc1cccc(C2=NOC3(C2)C[C@@H](C(N)=O)N(C(=O)COc2ccc(Cl)cc2)C3)c1 (stereo not given in full), the Potency is reported as inconclusive: 13 µM [inhibitor, partial curve, poor fit].
For COc1ccc(C(CNC(=O)c2ccc(NS(=O)(=O)c3ccc(F)c(C)c3)cc2)N(C)C)cc1 (stereo not given), the “activity change, negative = inhibition” value was inactive: 14.9%.
For COc1ccc(OC)c2c(C)cc(N3CCN(C(=O)c4ccc(Cl)cc4)CC3)nc12, the Potency was inconclusive: 20.6 µM [inhibitor, single point].
In the case of CNC(C)C#Cc1ccc2sc3cccc(OC)c3c(=O)c2c1 (stereo not given), the Potency is reported as inconclusive: 18.3 µM [activator, single point].
For Cc1ccc(NC(=O)CSC2=Nc3ccccc3C3CC=NN23)c(C)c1 (stereo not given), the Potency was inconclusive: 32.6 µM [inhibitor, partial curve, poor fit].
In the case of C/C(=N/NC(=O)c1ccncc1)c1ccc(NC(=O)c2ccc(Cl)cc2Cl)cc1, the Potency is reported as inconclusive: 5.8 µM [activator, partial curve].
In the case of Cc1c(NC(=O)c2ccc([N+](=O)[O-])o2)cccc1-c1nc2ncccc2o1, the Potency is reported as inconclusive: 20.6 µM [inhibitor, partial curve, poor fit].
With CCCCSCCCNC(=O)Nc1ccc(CC)cc1 the “activity change, negative = inhibition” value was inactive: -10%.
For O=C(Nc1nc(=S)ss1)c1ccc(Cl)cc1Cl, the Potency was inconclusive: 0.206 µM [inhibitor, full curve, poor fit].
With Oc1ccc(Nc2nc3ccccc3nc2Nc2ccc(O)cc2)cc1 the Potency was inconclusive: 32.6 µM [inhibitor, partial curve, poor fit].
In the case of Cc1ccc(C(=O)NCC(c2ccco2)N2CCc3ccccc3C2)cc1C (stereo not given), the “activity change, negative = inhibition” value is reported as inactive: -12.4%.
In the case of Cc1cc(=O)oc2cc(OC(C)C(=O)N3CCCc4ccccc43)ccc12 (stereo not given), the Potency is reported as inconclusive: 18.4 µM [activator, single point].
With CCOC(=O)c1sc(NC(=O)CSc2n[nH]c(-c3ccccc3)n2)c(C#N)c1C the Potency was inconclusive: 25.9 µM [inhibitor, single point].
For Clc1ccc(-c2nnc(-c3ccco3)o2)cc1, the Potency was inconclusive: 10.3 µM [activator, partial curve].
For COc1cc(OC)cc(C(=O)Nc2cccc3ccccc23)c1, the Potency was inconclusive: 23.1 µM [inhibitor, partial curve, poor fit].
With Oc1cccc2ccc(/C=C/c3c(F)cccc3Cl)nc12 the Potency was inconclusive: 18.3 µM [activator, partial curve].
For Cc1cccc2c1N(CCOc1ccccc1Cl)C(=O)C2=O, the Potency was inconclusive: 23.1 µM [inhibitor, single point].
With Cc1ccc2c(c1)nnn2C1CCN(S(=O)(=O)c2cccc(S(=O)(=O)N(C)C)c2)CC1 the Potency was active: 20.6 µM.
In the case of O=C(NCCc1cn2ccsc2n1)c1cccs1, the Potency is reported as inconclusive: 8.2 µM [activator, partial curve].
For C=CCn1c(SC)nnc1-c1ccc2ncccc2c1, the Potency was inconclusive: 14.6 µM [activator, partial curve].
In the case of COc1cc(-c2n[nH]c(=S)n2C(C)c2ccccc2)cc(OC)c1OC (stereo not given), the “activity change, negative = inhibition” value is reported as inactive: -0.311%.
For N#Cc1c(-c2cccs2)cc(-c2ccccn2)nc1N, the Potency was inconclusive: 10.3 µM [inhibitor, partial curve].
In the case of O=C(c1ccco1)N(CCC(c1ccccc1)c1ccco1)Cc1ccc(F)cc1 (stereo not given), the Potency is reported as inconclusive: 23.1 µM [inhibitor, single point].
For CCn1c(SCC(=O)Nc2nonc2C)nnc1-c1ccco1, the Potency was inconclusive: 29.1 µM [inhibitor, single point].
In the case of COC1(OC)N=C(N)C2(C#N)C(c3ccc4c(c3)OCO4)C12C#N (stereo not given), the Potency is reported as inconclusive: 8.2 µM [inhibitor, partial curve].
In the case of O=C(CN1CCC(c2nc3ccccc3s2)CC1)NCc1ccccc1, the Potency is reported as inconclusive: 18.4 µM [inhibitor, partial curve].
With COc1cc(/C=C2/C(=O)N(c3ccc(Br)cc3)N=C2C)cc([N+](=O)[O-])c1O the “activity change, negative = inhibition” value was inactive: 5.24%.
With COc1ccc(OC)c(NC(=O)CN2CCc3ccccc3C2)c1 the Potency was inconclusive: 16.4 µM [inhibitor, partial curve].
In the case of O=C(COC(=O)CC(c1ccccc1)c1ccccc1)NCc1ccccc1, the Potency is reported as inconclusive: 29.1 µM [inhibitor, single point].
For COc1cc(C(CC(=O)Nc2cccc(C)n2)N2Cc3ccccc3C2=O)cc(OC)c1OC (stereo not given), the Potency was inconclusive: 18.3 µM [inhibitor, partial curve].
With CC(=O)c1ccc(OCCCC(=O)N2CCN(S(=O)(=O)c3cccs3)CC2)cc1 the Potency was inconclusive: 25.9 µM [inhibitor, partial curve].
With CC(C)Cc1nnc(NC(=O)C2CCCC2)s1 the Potency was inconclusive: 25.9 µM [activator, partial curve, poor fit].
In the case of O=C(Nc1ccc(Cc2nc3ccccc3s2)cc1)c1ccncc1, the Potency is reported as inconclusive: 23.1 µM [inhibitor, partial curve, poor fit].
With CCC1(C)Cc2c(sc3nc(NN)n(C)c(=O)c23)CO1 (stereo not given) the Potency was inconclusive: 14.6 µM [inhibitor, partial curve, poor fit].
For Cc1cnc(NC(=O)c2cccs2)s1, the Potency was inconclusive: 8.2 µM [activator, partial curve].
For COc1ccc(Cl)cc1N1C(=O)/C(=C\c2sccc2C)N=C1SCC(=O)NC1CC1, the Potency was active: 16.4 µM.
For Cc1ccc(Cl)cc1NC(=O)CC(O)(C(F)(F)F)C(F)(F)F, the “activity change, negative = inhibition” value was inactive: -16.9%.
In the case of CN1CCC(=O)N(CCSc2ccc(Br)cc2)CC1, the Potency is reported as inconclusive: 23.1 µM [activator, single point].
For Cc1ccc(/C=C/C(=O)NCCCc2ccccc2)cc1, the Potency was inconclusive: 29.1 µM [activator, single point].
In the case of COc1ccc(S(=O)(=O)N(CCCN2CCCC2=O)Cc2cc3c(C)ccc(C)c3[nH]c2=O)cc1, the Potency is reported as inconclusive: 29.1 µM [inhibitor, single point].
For COc1ccc(C(=O)N/C(=C/c2ccccc2F)C(=O)NCCN2CCOCC2)cc1OC, the “activity change, negative = inhibition” value was inactive: 20.7%.
In the case of O=c1cc(CSc2nnc(COc3ccccc3Cl)o2)nc2sccn12, the “activity change, negative = inhibition” value is reported as inactive: 7.82%.
With O=C(O)c1[nH]c2ccc(Cl)cc2c1CC(=O)N1CCN(c2ccccc2)CC1 the Potency was inconclusive: 18.4 µM [activator, single point].
In the case of CCC(=O)c1cc(F)c(N2CCN(S(=O)(=O)c3ccc(C)cc3)CC2)cc1C, the Potency is reported as inconclusive: 23.1 µM [inhibitor, single point].
In the case of CCOC(=O)/C(C#N)=C/c1cn(CCOc2ccccc2)c2ccccc12, the Potency is reported as inconclusive: 29.1 µM [inhibitor, partial curve, poor fit].
With O=C(Nc1ccc2nc(-c3cccs3)[nH]c2c1)c1cccs1 the Potency was inconclusive: 25.9 µM [activator, single point].
With O=c1[nH]c2c(s1)C(c1ccc(O)cc1)C1C3CCC(C3)C1S2 (stereo not given) the “activity change, negative = inhibition” value was inactive: 5.47%.
For O=C(O)c1ccc(/C=C/c2ccc3cccc(O)c3n2)cc1, the Potency was inconclusive: 16.4 µM [activator, partial curve].
In the case of CC(=O)c1cccc(NC(=S)Nc2ccn(Cc3cccc4ccccc34)n2)c1, the Potency is reported as inconclusive: 29.1 µM [inhibitor, single point].
With COc1ccc(S(=O)(=O)Nc2ccccc2OC)cc1NC(=O)c1cc2ccccc2oc1=O the Potency was inconclusive: 10.3 µM [activator, partial curve].
For O=C(c1cc2nc(-c3ccccc3)cc(C(F)(F)F)n2n1)N1CCOCC1, the Potency was inconclusive: 9.2 µM [activator, partial curve, poor fit].
With Cc1sc2nc3n(c(=O)c2c1C)CCCS3 the Potency was inconclusive: 20.6 µM [activator, single point].

From PubChem BioAssay AID504467 (National Center for Advancing Translational Sciences (NCATS), 2011)
% is scaled to controls: 0 for no effect and ±100 for the full control effect; potency is read from the fitted curve at half-maximal effect.
